# In PubChem BioAssay AID624297 (National Center for Advancing Translational Sciences (NCATS), 2012):
# The campaign covered roughly 340,000 compounds. About 6,200 (1.8%) were called active. The shares of active, inactive and inconclusive entries below differ from those in the screen. Calls follow the shape of the dose curve; as a rule, active = well fitted activation curve with a large enough effect; inconclusive = small, poorly fitted or top-dose-only effect; inactive = no such curve, though single readings can be large or run the other way. A potency beside an inconclusive call is a rough fit, not a confirmed value.
# Test: A quantitative high throughput screen for small molecules that induce DNA re-replication in SW480 colon adenocarcinoma cells. Also: nearly all actives have a fitted effect of over 55% in size. As to re-replication activation: % of control where 0% means no effect.
# Details: Hoechst DNA content imaging, 48 h; re-replication activation: at 46.1 µM (top of the series) unless noted
# Outline: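 Per well, 250 cells were exposed to pinned compound for 48 hr. Nuclear DNA was visualised with Hoechst (40 min, 37 C) and total object intensity recorded by fluorescence scanning.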
# Potency is read from the fitted curve at half-maximal effect.
Compound,re-replication activation,Potency
Cc1cc(C)nc(SCC(=O)Nc2ncccn2)n1,inconclusive: -270% [activator],
Cc1cc(C)c(C#N)c(SCCN2CCOCC2)n1,,inactive
CCC(=O)N1c2ccccc2NC2=C(C(=O)CC(C)(C)C2)C1c1ccc(O)c(OC)c1 (stereo not given),,"inconclusive: 0.82 µM [activator, partial curve, poor fit]"
O=C(Nc1ccc2c(c1)C(=O)OC2)c1ccc(C(F)(F)F)cc1,,inactive
CCCCNC(=S)Nc1ccc(Cl)cc1,,inactive
COc1cc(SC)ccc1C(=O)N1CCN(c2ccc(O)cc2)CC1,,"inconclusive: 29.1 µM [activator, single point]"
CCn1nc(NC(=O)c2cccnc2)c2cc3cccc(C)c3nc21,,"inconclusive: 2.91 µM [activator, partial curve, poor fit]"
Cc1ccc2c(c1)C1(OCCCO1)C(=O)N2CC#N,,inactive
c1ccc(CN(Cc2cccs2)C(c2cccs2)c2nnnn2C2CCCC2)cc1 (stereo not given),,inactive
COc1cc2nc(N3CCN(c4cc(C)ccc4C)CC3)nc(N)c2cc1OC,,"inconclusive: 29.1 µM [activator, single point]"
COC(=O)c1c(-c2cccc3ccccc23)csc1NC(=O)Cc1ccc(OC)c(OC)c1,,"inconclusive: 5.17 µM [activator, partial curve, poor fit]"
COc1ccc(CCCC(=O)N/N=C/c2cccc(OC)c2O)cc1C,,"inconclusive: 3.26 µM [activator, full curve, poor fit]"
COc1ccc(NC(=O)c2ccccc2C(=O)N2CCCCC2)cc1,,inactive
CC(C)c1ccc(CN(C(=O)/C=C/c2ccco2)C2CCS(=O)(=O)C2)cc1 (stereo not given),,inactive
CCOC(=O)C1CCCN(c2ncnc3c2oc2ccccc23)C1 (stereo not given),inactive: 3.01% [at 9.22 µM],
N#Cc1c(SCC(=O)Nc2nc3ccc(Br)cc3s2)sc2c(O)cc(=O)[nH]c12,,active: 11.6 µM
Cc1ccc(C)c(N2CCN(c3nc4ccccc4c(=O)n3Cc3ccccc3)CC2)c1,,"inconclusive: 10.3 µM [activator, partial curve, poor fit]"
O=C(CSc1nnc(CNC(=O)c2ccco2)o1)c1ccc(Cl)cc1,,"inconclusive: 18.4 µM [activator, partial curve, poor fit]"
COc1ccccc1CCNC(=O)COc1cccc2c1OC(C)(C)C2,,"inconclusive: 6.51 µM [activator, partial curve, poor fit]"
COc1ccc(S(=O)(=O)NCC2CCCN(C(=O)c3sccc3C)C2)cc1 (stereo not given),,"inconclusive: 0.291 µM [activator, full curve, poor fit]"
CC(OC(=O)Cn1[nH]c(=O)c2ccccc2c1=O)C(=O)NC1(C#N)CCCCC1 (stereo not given),,inactive
CCc1nnc(NC(=O)CSc2nnc(-c3ccccc3NC(=O)c3ccccc3)o2)s1,,"inconclusive: 29.1 µM [activator, single point]"
CCN1CCC(O)(C#Cc2ccccc2)CC1,,inactive

Compound,re-replication activation,Potency
C=CC(=O)N1C/C(=C/c2ccc(Cl)cc2)C(=O)/C(=C\c2ccc(Cl)cc2)C1,,active: 1.46 µM
c1nc(CCO[C@H]2CCCCO2)cc2cc3c(cc12)OCO3,inactive: -8.87% [at 9.22 µM],
COc1ccc(Nc2nc3ccccc3n3nnnc23)cc1,,inactive
Cc1ccc(C(=O)N/C(=C\c2cccs2)C(=O)NCCc2c[nH]c3ccccc23)cc1,,inactive
COc1ccc(-n2c(=S)[nH]c3cc(C(=O)Nc4ccc(F)cc4)ccc3c2=O)c(OC)c1,,"inconclusive: 14.6 µM [activator, single point]"
Oc1ccc2ccccc2c1CNc1ccc(Br)cc1,,"inconclusive: 20.6 µM [activator, partial curve, poor fit]"
COc1cccc(-c2nn(C)c3sc(C(=O)NCc4ccc(C)o4)cc23)c1,,"inconclusive: 29.1 µM [activator, partial curve, poor fit]"
CN1CCN(Cc2ccc(OCc3ccccc3)cc2)CC1,,inactive
COc1ccc(Oc2c(Cl)cnn(-c3ccc(C)cc3)c2=O)cc1,,"inconclusive: 18.4 µM [activator, single point]"
Cc1ccc(C(C)C)c(OCc2ccc(C(=O)N/N=C/c3ccc(O)c(O)c3)cc2)c1,,"inconclusive: 29.1 µM [activator, single point]"
O=C(O)/C(=C\c1cccc(O)c1)c1ccc(S(=O)(=O)N2CCCC2)s1,,inactive
COc1cccc(CC(=O)OCC(=O)N(C)CC(=O)Nc2ccccc2Cl)c1,,inactive
O=C(NC1CCCCC1)C(c1cccnc1)N(C(=O)CCl)c1ccc(F)cc1 (stereo not given),,active: 2.06 µM
CCOc1c(S(=O)(=O)NC2CC(C)(C)NC(C)(C)C2)ccc(Cl)c1Cl,,"inconclusive: 16.4 µM [activator, single point]"
COCCNC(=O)c1onc(CSc2ccc(F)c(F)c2)c1C(=O)O,,"inconclusive: 13 µM [activator, single point]"
O=C(NC1CCCC1)c1ccc(CS(=O)(=O)c2cccc(C(F)(F)F)c2)o1,,inactive
C#CCOCCOCCOCCNc1nc(N2CCOCC2)nc(N2CCN(C(=O)CCCCCCCCCCNC(=O)[C@@H]([C@H](C)CC)n3cc(CCCCCN)nn3)CC2)n1,,"inconclusive: 10.3 µM [activator, single point]"
COc1ccc(OCc2cc(C(=O)NCC3CCOCC3)no2)c(Cl)c1,,"inconclusive: 2.31 µM [activator, partial curve, poor fit]"
COc1ccc(/C=C/c2cc(=O)c3cc(Cl)ccc3o2)cc1,,"inconclusive: 25.9 µM [activator, single point]"
CC(=O)Nc1ccc(-n2c(=O)c3ccccc3c3ccccc3c2=O)cc1,,"inconclusive: 14.6 µM [activator, partial curve]"
CCc1sc(C(=O)NCCc2ccc(S(N)(=O)=O)cc2)cc1C,,"inconclusive: 23.1 µM [activator, partial curve, poor fit]"
O=C(NCCc1ccccc1)[C@@H]1CC=C[C@@H]2CCN(Cc3ccccc3)C(=O)[C@@H]21,,"inconclusive: 1.03 µM [activator, single point]"

# A draw from above in order of heavy-atom count, low to high:
Compound,re-replication activation,Potency
COc1ccc(Nc2nc3ccccc3n3nnnc23)cc1,,inactive
O=C(O)/C(=C\c1cccc(O)c1)c1ccc(S(=O)(=O)N2CCCC2)s1,,inactive
CC(C)c1ccc(CN(C(=O)/C=C/c2ccco2)C2CCS(=O)(=O)C2)cc1 (stereo not given),,inactive
